The values that follow come from the supplement of paper PMC6411743.

For the assay, the target named is A0A0A0MT26|P13637 and related entries (UniProt P13637). Briefly: NP40-soluble protein abundance relative to vehicle (solubility fold change) (ratio); higher = more soluble protein in presence of ATP. Put shortly: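 In three independent experiments, Jurkat crude lysate made by Dounce homogenisation was treated for 10 min at room temperature and then 3 min at 37 °C with eight concentrations ranging from 0.1 to 10 mM. It was then solubilised with 0.8% NP40 plus benzonase for 60 min at 4 °C and ultracentrifuged. The supernatant was TMT-labelled for LC-MS/MS, and each value is the fold change against the detergent-processed vehicle for the same replicate, using vsn-normalised intensities.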

± gives the standard deviation of the averaged measurements. This is a selection; strong and weak results do not stand in their true shares. Most values lie at the level of the controls, where differences are scatter.

`Nc1ncnc2c1ncn2[C@@H]1O[C@H](COP(=O)(O)OP(=O)(O)OP(=O)(O)O)[C@@H](O)[C@H]1O` [adenosine triphosphate]: the NP40-soluble protein abundance (concentration: 0.1mM) stood at 1.06 ± 0.029 and the NP40-soluble protein abundance (concentration: 0.5mM) came to 1.03 ± 0.043.
